These are yes or no findings as the source states them, for the method shown. In cells and extracts the contact can be indirect. A yes stands for co-enrichment or nearness to the bait. Other partners may have been found.

This assay deals with T1, Smc6 (budding yeast) (UniProt Q12749).
T1 sequence: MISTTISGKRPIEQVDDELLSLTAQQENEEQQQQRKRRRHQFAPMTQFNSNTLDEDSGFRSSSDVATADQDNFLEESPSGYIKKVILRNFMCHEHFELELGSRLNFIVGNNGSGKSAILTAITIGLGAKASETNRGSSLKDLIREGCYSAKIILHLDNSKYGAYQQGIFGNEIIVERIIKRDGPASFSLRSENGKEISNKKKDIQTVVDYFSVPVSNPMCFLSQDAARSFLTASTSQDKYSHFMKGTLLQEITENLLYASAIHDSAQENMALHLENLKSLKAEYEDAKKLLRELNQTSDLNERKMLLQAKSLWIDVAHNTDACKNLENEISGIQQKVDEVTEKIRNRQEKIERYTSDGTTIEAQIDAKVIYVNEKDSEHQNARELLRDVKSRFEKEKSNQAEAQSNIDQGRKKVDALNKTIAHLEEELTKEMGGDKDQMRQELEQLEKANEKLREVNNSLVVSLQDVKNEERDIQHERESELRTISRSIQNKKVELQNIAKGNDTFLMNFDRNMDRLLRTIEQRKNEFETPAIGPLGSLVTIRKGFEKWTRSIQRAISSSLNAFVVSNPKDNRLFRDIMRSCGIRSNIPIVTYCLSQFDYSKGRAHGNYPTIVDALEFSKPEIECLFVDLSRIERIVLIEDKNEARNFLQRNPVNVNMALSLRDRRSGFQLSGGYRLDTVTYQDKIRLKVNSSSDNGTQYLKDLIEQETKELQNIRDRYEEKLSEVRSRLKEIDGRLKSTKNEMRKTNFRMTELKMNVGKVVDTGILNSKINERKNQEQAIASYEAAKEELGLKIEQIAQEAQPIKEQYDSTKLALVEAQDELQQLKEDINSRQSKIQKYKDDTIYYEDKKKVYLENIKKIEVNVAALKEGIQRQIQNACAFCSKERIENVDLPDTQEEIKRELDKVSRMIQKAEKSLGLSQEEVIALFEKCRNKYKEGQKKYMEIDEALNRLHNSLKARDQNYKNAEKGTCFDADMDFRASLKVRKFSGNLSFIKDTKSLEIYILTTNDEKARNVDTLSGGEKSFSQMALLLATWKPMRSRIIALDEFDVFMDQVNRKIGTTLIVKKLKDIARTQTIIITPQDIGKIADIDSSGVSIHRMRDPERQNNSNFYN
The experiment in a line: affinity purification with mass spectrometry; eight subunits co-expressed in S. cerevisiae; lysate on StrepTrap HP (Smc6-3xStrepII), desthiobiotin elution, HiTrap Heparin, Superose 6 Increase at 300 mM NaCl; integrity confirmed by SDS-PAGE and mass spectrometry.

B1: Nse3 (protein, UniProt Q05541 1-303)
chain: MSSIDNDSDVDLTEDLAVAKIVKENPVARKMVRYILSRGESQNSIITRNKLQSVIHEAAREENIAKPSFSKMFMDINAILYNVYGFELQGLPSKNNMNAGGNGSNSNTNKSMPEPLGHRAQKFILLNNVPHSKNFDDFKILQSAHTYEELIVTGEYIGDDIASGTSNTLESKLSTDRDLVYKGVLSVILCIVFFSKNNILHQELIKFLETFGIPSDGSKIAILNITIEDLIKSLEKREYIVRLEEKSDTDGEVISYRIGRRTQAELGLESLEKLVQEIMGLEKEQTKSLHDDIIKSIGDSYSI
On to B1, for which the binding entry is on record as “binds”.

B2: Nse1 (protein, UniProt Q07913 1-336)
chain: MEVHEEQVSAPVTGDATAKYLLQYILSARGICHENALILALMRLETDASTLNTEWSIQQWVDKLNDYINAINVKLNLLGYKIIRINHGIGRNAVTLKAKQNFESFEDNTAIRAHNNDYAVLQSIVLPESNRFFVYVNLASTEETKLATRFNQNEIEFMKWAIEQFMISGETIVEGPALETSIIVKEVNRILVAATGDSNLAKWRKFSTFTVGSTNLFQFQELTATDIEDLLLRLCELKWFYRTQEGKFGIDLRCIAELEEYLTSMYNLNTCQNCHKLAIQGVRCGNESCREENEETGENSLSQIWHVDCFKHYITHVSKNCDRCGSSLITEGVYVI
For the molecule B2, the binding entry is listed as “binds”.

B3: Nse2 (protein, UniProt P38632 1-267)
chain: MALNDNPIPKSVPLHPKSGKYFHNLHARDLSNIYQQCYKQIDETINQLVDSTSPSTIGIEEQVADITSTYKLLSTYESESNSFDEHIKDLKKNFKQSSDACPQIDLSTWDKYRTGELTAPKLSELYLNMPTPEPATMVNNTDTLKILKVLPYIWNDPTCVIPDLQNPADEDDLQIEGGKIELTCPITCKPYEAPLISRKCNHVFDRDGIQNYLQGYTTRDCPQAACSQVVSMRDFVRDPIMELRCKIAKMKESQEQDKRSSQAIDVL
For the molecule B3, the binding entry is given as “binds”.

B4: Nse4 (protein, UniProt P43124 1-402)
chain: MSSTVISRKRRNSTVTEPDSSGETRKQKKSRSDEKSSSSKDGDPQLEFKVLQGYRDLESEMHKGRAQVTRTGDIGVAMDNLNAVDSLFNKVIGIKNNGLFAHDARAMVSISELAQISVRNLKFDDSRSMVNLENIVNSLKRYMLKEHFKLNNIAENRNDLTLAADEQSAADQQEESDGDIDRTPDDNHTDKATSSFKATSMRHSYLQQFSHYNEFSQFNWFRIGALYNTISKNAPITDHLMGPLSIEKKPRVLTQRRRNNDQVGEKITAEKITQHSLNSTQQETTPEQVKKCFKKLSKKLGPEGSINLFKFIIDPNSFSRSIENLFYTSFLIKEGKLLMEHDEEGLPTIKIKQSISHTDSRSKEIERQRRRAAHQNHIIFQMDMPTWRKLIKKYNITSPFLD
On to B4, for which the binding result is given as “binds”.

Values taken from publication PMC9756111, “Stabilization of DNA fork junctions by Smc5/6 complexes revealed by single-molecule imaging”.
